These are yes or no findings as the source states them, for the method shown. In cells and extracts the contact can be indirect. A result given as binding can be weak or reduced; the word gives no strength.

Protein sequences, listed by entry. Tags and fused reporters are not part of them. Lines headed by an entry give the natural chain unless they say otherwise; changes in a name come on top.
UniProt Q9H792: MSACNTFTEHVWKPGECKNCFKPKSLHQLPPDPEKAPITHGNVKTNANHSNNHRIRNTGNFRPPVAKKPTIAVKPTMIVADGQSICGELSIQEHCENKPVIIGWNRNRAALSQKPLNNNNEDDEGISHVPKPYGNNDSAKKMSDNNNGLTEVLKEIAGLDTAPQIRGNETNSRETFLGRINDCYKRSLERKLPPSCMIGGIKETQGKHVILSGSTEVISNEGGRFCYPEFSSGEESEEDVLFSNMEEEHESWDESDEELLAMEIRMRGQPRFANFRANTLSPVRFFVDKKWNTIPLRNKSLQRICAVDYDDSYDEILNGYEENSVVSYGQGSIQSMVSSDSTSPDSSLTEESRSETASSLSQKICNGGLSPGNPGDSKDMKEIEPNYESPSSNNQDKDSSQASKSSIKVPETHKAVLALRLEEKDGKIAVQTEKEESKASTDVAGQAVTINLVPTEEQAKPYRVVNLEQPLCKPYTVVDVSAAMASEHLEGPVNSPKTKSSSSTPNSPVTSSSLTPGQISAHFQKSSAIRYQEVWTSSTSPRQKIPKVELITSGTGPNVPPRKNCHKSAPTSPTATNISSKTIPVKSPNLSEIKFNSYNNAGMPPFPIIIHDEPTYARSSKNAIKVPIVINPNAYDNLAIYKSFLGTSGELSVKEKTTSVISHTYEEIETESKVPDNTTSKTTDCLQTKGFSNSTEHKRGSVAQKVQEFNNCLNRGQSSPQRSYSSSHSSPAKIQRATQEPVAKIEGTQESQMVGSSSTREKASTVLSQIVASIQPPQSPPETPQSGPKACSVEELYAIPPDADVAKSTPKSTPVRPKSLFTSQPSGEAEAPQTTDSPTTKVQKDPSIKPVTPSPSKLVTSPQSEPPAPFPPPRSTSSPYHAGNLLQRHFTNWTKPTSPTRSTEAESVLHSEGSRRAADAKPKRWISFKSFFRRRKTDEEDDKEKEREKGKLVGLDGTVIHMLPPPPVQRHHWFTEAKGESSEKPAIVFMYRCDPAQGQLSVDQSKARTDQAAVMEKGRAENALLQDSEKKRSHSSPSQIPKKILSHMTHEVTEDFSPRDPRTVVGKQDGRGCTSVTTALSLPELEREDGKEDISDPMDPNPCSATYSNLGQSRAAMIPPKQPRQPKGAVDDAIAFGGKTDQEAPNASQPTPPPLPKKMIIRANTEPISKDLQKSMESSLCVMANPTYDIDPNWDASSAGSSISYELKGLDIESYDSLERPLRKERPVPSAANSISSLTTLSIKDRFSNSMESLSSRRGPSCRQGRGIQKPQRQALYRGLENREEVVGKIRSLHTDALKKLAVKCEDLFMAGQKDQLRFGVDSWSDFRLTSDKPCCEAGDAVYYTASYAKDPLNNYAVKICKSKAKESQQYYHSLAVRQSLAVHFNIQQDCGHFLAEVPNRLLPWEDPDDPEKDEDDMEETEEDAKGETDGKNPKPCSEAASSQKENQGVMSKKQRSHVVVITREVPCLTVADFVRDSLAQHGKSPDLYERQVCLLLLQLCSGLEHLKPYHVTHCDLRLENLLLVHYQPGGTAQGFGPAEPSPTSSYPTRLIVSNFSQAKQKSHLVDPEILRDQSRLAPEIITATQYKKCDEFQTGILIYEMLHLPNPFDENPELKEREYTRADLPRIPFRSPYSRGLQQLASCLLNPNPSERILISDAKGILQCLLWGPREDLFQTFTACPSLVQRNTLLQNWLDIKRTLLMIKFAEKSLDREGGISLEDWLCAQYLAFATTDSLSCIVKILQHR
UniProt Q13557: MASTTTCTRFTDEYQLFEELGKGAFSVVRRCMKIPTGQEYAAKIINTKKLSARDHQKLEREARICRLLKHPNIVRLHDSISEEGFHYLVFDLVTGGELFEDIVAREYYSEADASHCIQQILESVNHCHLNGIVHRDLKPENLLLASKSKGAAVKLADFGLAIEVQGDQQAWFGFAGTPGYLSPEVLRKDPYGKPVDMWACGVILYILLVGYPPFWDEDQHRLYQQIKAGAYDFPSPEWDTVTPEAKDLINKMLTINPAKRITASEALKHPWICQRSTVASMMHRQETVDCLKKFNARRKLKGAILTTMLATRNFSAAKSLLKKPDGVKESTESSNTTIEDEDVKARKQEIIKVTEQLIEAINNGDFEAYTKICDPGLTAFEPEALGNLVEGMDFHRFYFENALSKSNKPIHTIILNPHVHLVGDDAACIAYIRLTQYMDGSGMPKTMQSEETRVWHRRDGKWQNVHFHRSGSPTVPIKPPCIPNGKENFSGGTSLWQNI

This experiment concerns the target Flag-tagged PEAK1 ΔN1 (human) (UniProt Q9H792). Description: co-IP; Flag-tagged PEAK1 and deletion mutants expressed in HEK293T; anti-FLAG M2 agarose IP from lysate (normal lysis buffer), 4 °C 2–4 h; Western blot for CAMK2D or CAMK2G. On the technique in general: In western blotting, separated proteins are transferred to a membrane and probed.

Take “calcium/calmodulin-dependent protein kinase 2 (CAMK2)D, endogenous in HEK293T (from UniProt Q13557 1-499) (enzyme)”: the binding result is “binds”.
